In patent US12496330B2, “Methods of improving spinal fusion with abaloparatide” (Radius Health, Inc., priority 2019, dated 2025):
“Also recorded” adds a separate entry of the source. Not every detail of the peptide structures is certain; ends, links or a residue may be inferred. Marks after values point to notes of the source that are not given here.

Columns and labels:
serum osteocalcin = test: Serum bone formation marker osteocalcin (ELISA), rat PLF model; format: in vivo, male Sprague-Dawley rats; conditions: for Serum Osteocalcin: mean ± standard error; for Serum osteocalcin versus vehicle, in words: Days 14 and 28
serum TRACP-5b = test: Serum bone resorption marker TRACP-5b (RatTRAP ELISA), rat PLF model; format: in vivo, male Sprague-Dawley rats; conditions: for Serum TRACP-5b: mean ± standard error
[1] = test system: L4-L5 motion segment, rat posterolateral fusion model; test: Radiographic fusion assessment, rat posterolateral fusion (PLF) model; format: in vivo, male Sprague-Dawley rats; conditions: 20 μg/kg/d s.c.
[2] = test system: vertebral trabecular bone, Rabbit Spinal Arthrodesis Model; test: HR-pQCT trabecular microarchitecture of distal vertebral body, fused rabbit lumbar vertebrae; format: in vivo, rabbits
[3] = test system: bone resorption and bone formation markers; conditions: male mice, cited from earlier work
[4] = test system: bone fusion mass, Rabbit Spinal Arthrodesis Model; test: microCT ROI quantification of bone fusion mass, Rabbit Spinal Arthrodesis Model; format: in vivo, male New Zealand White rabbits; conditions: 6 weeks after surgery, 25 μg/kg/d s.c.
[5] = test system: L4-L5 motion segment, rat posterolateral fusion model; test: Manual palpation for fusion status, rat PLF model; format: in vivo, male Sprague-Dawley rats; conditions: 20 μg/kg/d s.c.
[6] = test system: Rabbit Spinal Arthrodesis Model (posterolateral spinal fusion); test: Radiographic fusion scoring, Rabbit Spinal Arthrodesis Model; format: in vivo, male New Zealand White rabbits; conditions: 6 weeks after surgery
femoral fracture callus = conditions: rats; cited from earlier work
[7] = test system: fusion mass including transverse processes, rat posterolateral fusion model; test: Micro-CT analysis of fusion masses, rat PLF model; format: in vivo, male Sprague-Dawley rats; conditions: for Bone volume of fusion mass: average of left and right sides; for Bone volume of fusion mass / Trabecular Number of fusion mass / Trabecular Thickness of fusion mass: mean ± standard error
[8] = test system: Rabbit Spinal Arthrodesis Model (posterolateral spinal fusion); test: Manual assessment of fusion (MAF), Rabbit Spinal Arthrodesis Model; format: in vivo, male New Zealand White rabbits; conditions: 6 weeks after surgery; 25 μg/kg/d s.c. from day 4; 10/10 animals
[9] = Day 0 (prior to surgery and dosing)

## CC[C@H](C)[C@H](NC(=O)[C@H](CO)NC(=O)[C@H](CCCCN)NC(=O)CNC(=O)[C@H](CCCCN)NC(=O)[C@H](CC(=O)O)NC(=O)[C@H](Cc1c[nH]cn1)NC(=O)[C@H](CC(C)C)NC(=O)[C@H](CC(C)C)NC(=O)[C@H](CCC(N)=O)NC(=O)[C@H](Cc1c[nH]cn1)NC(=O)[C@H](CCC(=O)O)NC(=O)[C@H](CO)NC(=O)[C@@H](NC(=O)[C@H](C)N)C(C)C)C(=O)N[C@@H](CCC(N)=O)C(=O)N[C@@H](CC(=O)O)C(=O)N[C@@H](CC(C)C)C(=O)N[C@@H](CCCNC(=N)N)C(=O)N[C@@H](CCCNC(=N)N)C(=O)N[C@@H](CCCNC(=N)N)C(=O)N[C@@H](CCC(=O)O)C(=O)N[C@@H](CC(C)C)C(=O)N[C@@H](CC(C)C)C(=O)N[C@@H](CCC(=O)O)C(=O)N[C@@H](CCCCN)C(=O)N[C@@H](CC(C)C)C(=O)N[C@@H](CC(C)C)C(=O)NC(C)(C)C(=O)N[C@@H](CCCCN)C(=O)N[C@@H](CC(C)C)C(=O)N[C@@H](Cc1c[nH]cn1)C(=O)N[C@H](C(=O)N[C@@H](C)C(N)=O)[C@@H](C)O [Abaloparatide]
Serum osteocalcin; [9]
  Serum Osteocalcin: 44.2 ± 2.2 ng/mL
Serum osteocalcin; Day 14, 20 μg/kg/d s.c. daily
  Serum Osteocalcin: 45.4 ± 1.4 ng/mL
Serum osteocalcin; Day 28, 20 μg/kg/d s.c. daily
  Serum Osteocalcin: 35.7 ± 2.1 ng/mL
Serum osteocalcin
  Serum osteocalcin versus vehicle, in words: increased
Serum osteocalcin; listed as abaloparatide
  Serum osteocalcin versus vehicle, in words: significantly higher
Serum TRACP-5b; [9]
  Serum TRACP-5b: 5.9 ± 0.32 U/L
Serum TRACP-5b; Day 14, 20 μg/kg/d s.c. daily
  Serum TRACP-5b: 5.47 ± 0.38 U/L
Serum TRACP-5b; Day 28, 20 μg/kg/d s.c. daily
  Serum TRACP-5b: 5.62 ± 39 U/L
Serum TRACP-5b; Days 14 and 28, listed as abaloparatide
  Serum TRACP-5b versus vehicle, in words: lack of increased; also recorded: similar
[1]; Day 14, three blinded reviewers
  Radiographic fusion (unilateral or bilateral), animals fused: none
[1]; Day 14, both assessments
  Fusion status by radiography and manual palpation: no solid fusions
[1]; Day 14, both assessments, listed as ABL20
  Fusion status by radiography and manual palpation: No fusion
[1]; Day 28
  Incidence of fusion compared with vehicle controls: 2 fold
[1]; Day 28, three blinded reviewers
  Radiographic fusion bilaterally, rats fused: 4 of 8
[1]; Day 28, both assessments
  Animals demonstrating fusion by radiography and manual palpation: 50%
  Successful fusion by radiography and manual palpation, animals fused: 4 of 8
[2]; ABL n=9 vs saline n=10
  Connectivity density (Conn.D), difference relative to saline control: −22%
  Effect on trabecular number (Tb.N), in words: did not impact
  Effect on trabecular separation (Tb.Sp), in words: did not impact
  Specific bone surface (BS/BV), difference relative to saline control: −20%
  Trabecular bone volume fraction (Tb.BV/TV), difference relative to saline control: +17%
  Trabecular thickness (Tb.Th), difference relative to saline control: +17%
[2]; group Mean, n = 9
  BS/BV: 4.89 mm^2/mm^3
  BV/TV: 55.08%
  Conn.D.: 2.67 1/mm^3
  Tb.Sp: 0.480 mm
  Tb.Th: 0.352 mm
[3]; at 4-fold the current dose
  Bone resorption markers: increased
[3]; high dose
  Bone formation markers, high-dose abaloparatide versus high-dose teriparatide: significantly higher
[4]
  Bone volume versus saline control, in words: significantly higher
[4]; group mean
  Bone volume by microCT ROI quantification: 1173 mm3
[5]; Day 14
  Fusion by manual palpation, animals fused: no fusions
[5]; Day 28
  Fusion by manual palpation, animals fused: 4 of 8
[6]; 25 μg/kg/d s.c.
  Average radiographic score (sum of both sides, 0-10): 8.4
[6]; individual rabbit
  Radiographic score sum of the single treated rabbit fused by MAF but scored below 4.5: 4.33
Femoral fracture callus
  Callus bridging compared with vehicle controls: enhanced
  Strength compared with vehicle controls: improved
[7]; Day 14
  Fusion mass bone volume (BV) versus vehicle, in words: similar
  Trabecular number versus vehicle, in words: significantly higher
[7]; Day 14, 20 μg/kg/d s.c.
  Bone volume of fusion mass: 59.5 ± 3.0 mm^3
  Trabecular Number of fusion mass: 11.09 ± 0.68* 1/mm
  Trabecular Thickness of fusion mass: 50.3 ± 1.7 mm
[7]; Day 28
  Fusion mass bone volume (BV) versus vehicle/saline, in words: trend toward greater
  Trabecular number versus vehicle/saline, in words: trend to higher
  Trabecular thickness versus vehicle/saline, in words: trend to higher values
[7]; Day 28, 20 μg/kg/d s.c.
  Fusion evident by micro-CT (2D reconstructions, unblinded), animals fused: 4 of the 8
  Greater average fusion mass bone volume versus vehicle group: 19%
  Bone volume of fusion mass: 61.4 ± 3.1 mm^3
  Trabecular Number of fusion mass: 9.87 ± 0.74 1/mm
  Trabecular Thickness of fusion mass: 55.0 ± 1.6 mm
[7]; Day 28, listed as ABL20
  Fusion mass bone volume (BV) versus vehicle/saline, in words: significantly greater
  Trabecular number versus vehicle/saline, in words: significantly greater
  Trabecular thickness versus vehicle/saline, in words: significantly greater
[8]
  Successful fusion rate by MAF: 100%
